Reference: patent US12398141B2 (SHANGHAI SYNERGY PHARMACEUTICAL SCIENCES CO., LTD, priority 2019, dated 2025)

Assays:
Blast T cell = assay: Cell proliferation test of IL-2 stimulated Blast T cell; assay type: cell-based; conditions: Homo sapiens; IL-2 stimulated Blast T cell proliferation, 72 hours
Description: Inhibiting test of the compounds of the invention on proliferation of Blast T cell and TF-1 cell (American type culture collection) was carried out by the following method. The tested compounds […], and […] were dissolved in dimethyl sulfoxide from 0.0006 to 10 μM in quadruplicate dilutions. A culture medium included RPMI 1640 culture medium (Grand Turk Island Biotechnology CompanyTM, 11875093), 10% fetal calf serum (Aosibina, 0986180), 55 μM 2-mercaptoethanol and 1% penicillin-streptomycin (Grand Turk Island Biotechnology Company, 1902422). NuncTM Edge 2.0 96-well flat bottom (Cat. No. 167425). Healthy human PBMC cells (drawn blood from healthy human) were isolated, and CD4^+T cells were isolated using the EasySepTM human CD4 T cell isolation kit (Stemcell, 19052). 10 μg/ml polyhydroxyalkanoate was added to stimulate and obtain cells with a density of 2×10^6/mL, which were incubated for 3 days. The cells were washed with phosphate buffer for three times and IL-2 (100 u/ml) was added to stimulate for 1 week. Cells were suspended using the culture medium and seeded at 5×10^4 cell/well density into 96-well plates, and incubated for 1 h with the prepared test compound or DMSO control at various concentrations from 0.0006 to 10 μM diluted by 4-fold volume. […] The luminescence value was read on SpectraMax L (Molecular Device). […]

TF-1 cell = TF-1 cell proliferation test; assay type: cell-based; conditions: Homo sapiens, 72 h
Description: Inhibiting test of the compounds of the invention on proliferation of Blast T cell and TF-1 cell (American type culture collection) was carried out by the following method. The tested compounds […], and […] were dissolved in dimethyl sulfoxide from 0.0006 to 10 μM in quadruplicate dilutions. A culture medium included RPMI 1640 culture medium (Grand Turk Island Biotechnology CompanyTM-11875093), 10% fetal calf serum (Aosibina, 0986180) and 1% penicillin-streptomycin (Grand Turk Island Biotechnology Company, 1902422). […] The above test compounds at various concentrations formulated in 1.1 or dimethyl sulfoxide control were added and incubated for 72 h, and then Celltiter Glo® reagent (Promega, G7571) was added. The luminescence value was read on Microplate Reader (Molecular Device). […] The IC50 values of the corresponding compounds were then obtained by fitting by using the XLFit fitting tool in excel.

`C[C@@H]1CCN(C(=O)CC#N)C[C@@H]1N(C)c1ncnc2[nH]ccc12` [Tofacitinib, reference compound] was tested, and the IC50 (Blast T cell) was 0.065 µM and the IC50 (TF-1 cell) was 0.047 µM.
